Test results taken from publication PMC5996148.
Where “and” joins values, the source holds several entries; their conditions need not be identical. Equal values may be shown once. The list shows a part of the results. For some assays here: The exact form of the protein is not confirmed.

Legend:
Experiment in all cases: protein microarray (ProtoArray v5.0), streptavidin-Alexa Fluor 647
Conditions in all cases: 3'-biotin; 20 mM Tris (pH 7.5), 5 mM MgCl2, 100 mM KCl, 0.1% Tween-20, A/T-rich and random oligonucleotide blockers; temperature not stated; high values mean tight binding
[1] = test system: ABHD14B (human)
[2] = test system: ABHD4 (human)
[3] = test system: ABHD5 (human)
[4] = test system: ABHD6 (human)
[5] = test system: ACAD9 (human)
[6] = test system: ACADS (human)
[7] = test system: ACAN (human)
[8] = target: T1, ACBD6 (UniProt Q9BR61)
T1 sequence: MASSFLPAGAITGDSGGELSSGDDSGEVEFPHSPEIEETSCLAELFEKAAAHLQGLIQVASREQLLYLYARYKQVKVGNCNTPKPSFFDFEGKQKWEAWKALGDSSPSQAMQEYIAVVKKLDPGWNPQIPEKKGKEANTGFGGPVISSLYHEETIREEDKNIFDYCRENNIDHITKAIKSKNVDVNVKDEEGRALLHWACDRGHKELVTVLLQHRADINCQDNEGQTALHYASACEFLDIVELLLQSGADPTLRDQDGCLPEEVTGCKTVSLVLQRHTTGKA

[9] = test system: ACBD7 (human)
[10] = test system: ACCN2 (human)
[11] = test system: ACMSD (human)
[12] = test system: ACP1 (human)
[13] = test system: ACPP (human)
[14] = test system: ACRV1 (human)
[15] = test system: ACSL5 (human)
[16] = test system: ACTA2 (human)
[17] = test system: ACTC1 (human)
[18] = test system: ACTG2 (human)
[19] = test system: ACTL7B (human)
[20] = test system: ACTN2 (human)

## GGGAGGCTGAGGCAGG [G4-1 biotinylated (PQS2)]
[1]
  binding signal: -0.287 z-score
[2]
  binding signal: -0.321 z-score
[3]
  binding signal: -0.296 z-score
[4]
  binding signal: -0.313 z-score
[5]
  binding signal: -0.297 z-score
[6]
  binding signal: -0.258 z-score
[7]
  binding signal: -0.312 z-score
[8]
  binding signal: -0.341 z-score
[9]
  binding signal: -0.319 z-score
[10]
  binding signal: -0.309 z-score
[11]
  binding signal: -0.308 z-score
[12]
  binding signal: -0.331 z-score and -0.326 z-score
[13]
  binding signal: -0.325 z-score
[14]
  binding signal: -0.31 z-score
[15]
  binding signal: -0.321 z-score
[16]
  binding signal: -0.321 z-score
[17]
  binding signal: -0.289 z-score
[18]
  binding signal: -0.296 z-score
[19]
  binding signal: -0.329 z-score
[20]
  binding signal: -0.348 z-score
